# Percent effect of library compounds

The chains behind the UniProt entries cited, without tags or fusion partners.
UniProt P9WFT3, whole entry: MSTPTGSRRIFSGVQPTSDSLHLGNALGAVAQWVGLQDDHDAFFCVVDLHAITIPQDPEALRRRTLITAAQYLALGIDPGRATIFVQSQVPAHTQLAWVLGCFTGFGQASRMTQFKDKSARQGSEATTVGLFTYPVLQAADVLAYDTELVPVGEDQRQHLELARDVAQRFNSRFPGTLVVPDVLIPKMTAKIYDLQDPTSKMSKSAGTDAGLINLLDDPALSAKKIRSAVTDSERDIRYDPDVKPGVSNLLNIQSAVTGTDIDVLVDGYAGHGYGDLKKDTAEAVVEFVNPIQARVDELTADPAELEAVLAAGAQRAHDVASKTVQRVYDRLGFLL
UniProt P9WNZ1, whole entry: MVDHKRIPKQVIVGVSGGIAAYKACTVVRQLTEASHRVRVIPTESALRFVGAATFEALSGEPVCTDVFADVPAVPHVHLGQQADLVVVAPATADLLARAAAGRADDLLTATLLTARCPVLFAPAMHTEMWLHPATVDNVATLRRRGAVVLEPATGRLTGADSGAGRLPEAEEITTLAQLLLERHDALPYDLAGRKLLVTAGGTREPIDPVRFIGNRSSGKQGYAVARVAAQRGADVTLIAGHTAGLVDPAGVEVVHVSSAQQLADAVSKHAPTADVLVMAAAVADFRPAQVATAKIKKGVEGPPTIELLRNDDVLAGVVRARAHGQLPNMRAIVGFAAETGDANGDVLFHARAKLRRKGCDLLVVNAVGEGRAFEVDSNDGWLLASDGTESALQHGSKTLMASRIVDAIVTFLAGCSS

Values are the deposited “Percent Effect”, in %.
The controls that fix the scale are not given in the record; negative values are as filed.
Compounds were drawn at random from those tested, without regard to their results.
Two or more numbers in one place are separate tests of the same structure; such repeats can differ widely.
A dash means the value is not listed here; it may have been measured.

Leishmania in macrophages: 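Cell assay of Leishmania donovani living inside macrophages; the read-out is not stated. Concentration: 30 µM. Direction is inferred from retests: higher values go with stronger inhibition. Of about 69,000 compounds tested this way, about 1,000 (1.5%) reached 50% or more in at least one test.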
MtTrpRS: 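Enzyme assay of tryptophanyl-tRNA synthetase; the read-out is not stated. Target: Tryptophan-tRNA ligase, Mycobacterium tuberculosis (UniProt P9WFT3). Compounds at 10 µM. Direction is not recorded; retested compounds ran higher, which suggests that high means inhibition. About 65,000 compounds were tested under these conditions; 0.098% (about 64) showed 50% or more at least once.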
Toxoplasma: 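Assay of Toxoplasma gondii numbers, read through their beta-galactosidase reporter with a colour substrate. Compounds at 10 µM. Higher reads as fewer parasites (inferred from which compounds were picked for retests). Of about 67,000 compounds tested this way, about 260 (0.38%) reached 50% or more in at least one test.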
CoaBC: 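Coenzyme A biosynthesis protein CoaBC, Mycobacterium tuberculosis (UniProt P9WNZ1). Enzyme assay of CoaBC with a phosphate dye (Biomol Green) read at 650 nm. Concentration: 30 µM. Higher reads as stronger inhibition, judged from the few compounds that gave an IC50. Most strong results did not repeat in a second test. Of about 67,000 compounds tested this way, about 40 (0.06%) reached 50% or more in at least one test.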

compound,Leishmania in macrophages,MtTrpRS,Toxoplasma,CoaBC
Fc1ccccc1NCc1nc2n(n1)CCCCC2,-12.91,0.4068,3.605,3.924
O=C(O)C(F)(F)F.[H][C@@]12COC[C@]1(CNC(=O)CC1CC1)CN(c1ncccn1)C2,13.29,-,-7.747,-
COCCN1CC[C@]2(CN(Cc3ccccn3)C[C@H]2C)C1=O,-,-0.7551,-,-
O=C(c1cnccn1)N1CCN2C[C@H](OCC3CC3)C[C@H]2C1,-,5.542,-,1.468
Cc1cccc(CN2CCC3(CC2)CN(c2cnn(C)c2)C(=O)CO3)n1,-,2.766,-,2.506
Fc1ccc(N2CCCN(Cc3ccc(-c4cc[nH]n4)o3)CC2)cc1,28.75,1.273,10.78,-0.6424
Cc1nc(COCc2nc3c(o2)CN(C(=O)c2ccc[nH]2)C3)cs1,-,-2.229,-,-
Cc1ccccc1C(C(=O)N(C)Cc1cnn(C)c1)N(C)C (centres undefined),8.688,-1.547,-2.645,5.221
CCOCC(=O)N1CC(=O)Nc2cc(Br)ccc21,3.072,0.4776,-2.498,8.367
Cc1cccc(Oc2ccccc2CNC(=O)C2CCC(=O)NC2)c1 (centres undefined),-14.2,0.2581,4.628,6.734
Cc1ccc(CNCc2nnc3n2CC(C(F)(F)F)CC3)o1 (centres undefined),-4.112 & 30.69,-0.3268,7.432,0
CCc1c(C(=O)Nc2ccc(F)c(C(=O)NC)c2)cnn1CC(C)C,-10.79,1.06,26.4,0.6472
COCCn1ccnc1C1CCN(C(=O)c2cccc(COC)n2)CC1,18.58,0.1009,4.854,-
Cc1cc(C)n(CC2(CNC(=O)C(c3ccccc3C)N(C)C)CC2)n1 (centres undefined),0.8657,2.523,1.079,-
CCC1=N[C@@]2(CC[C@@H]3CN(CC)C[C@@H]32)C(=O)N1C,-,-,-,1.975
Cn1cc(C2COC3(CCN(C(=O)c4cccn4C)CC3)C2)cn1 (centres undefined),46.47,8.6,-19.49,-0.25
CC(Cn1cncn1)NC(=O)Nc1ccc(COC2CCCC2)cc1 (centres undefined),7.374,-3.367,-6.671,1.606
Cc1ccc(CN2CCCC3(CCCCN3S(C)(=O)=O)C2)s1 (centres undefined),-,-6.296,-,2.956
CCOc1cc(C)ccc1NS(=O)(=O)c1cc(C)c(C(=O)O)s1,3.879,-6.948,0.6377,8.584
CCCc1cc(N2CCC(N[C@H]3CC[C@H](O)CC3)CC2)nc(C)n1,8.442,-3.329,-10.9,-0.3727
Cc1ccc(NC(=O)Nc2c[nH]c(=O)[nH]c2=O)c(Cl)c1,-3.728,2.799,17.25,2.542
COc1ccc(CCN2C(=O)O[C@@H]3CN(C4CCSCC4)C[C@@H]32)cc1,-,-2.853,-,-2.096
O=C(O)C(F)(F)F.O=C(c1cnccn1)N1CCC2(CC1)CCN(Cc1ccccn1)C2=O,21.53,-,0.5175,-
COc1ccccc1Oc1cncc(C2CCCN(C)C2)n1 (centres undefined),-1.24,-5.804,9.983,-0.618
CC(CO)Nc1ccc(-c2nc(Cc3ccc(F)cc3)no2)cn1 (centres undefined),-43.38,-1.354,-20,-0.2439
COc1cccc(-c2cc(NCc3nc(C)cs3)n(C)n2)c1,26.59,-16.16,-0.903,-1.818
Cc1ccc(C)c(S(=O)(=O)CCN2CCCC2Cn2cccn2)c1 (centres undefined),41.43,0.9331,31.81,0.1211
CC(C)c1cnc(CN2CCCS2(=O)=O)o1,-2.214,-3.183,4.926,-2.857
COc1ccc(OCc2cc(C(=O)N3CCN[C@H](C)C3)n[nH]2)c(Cl)c1,4.602,-3.793,-4.962,-25.37
CCCNC(=O)c1cccc2ncccc12,26.99,-2.236,6.408,4
CC(C)Oc1ccccc1CNC(=O)N(C)CC(F)F,-9.44,0.5084,-39.9,0.7299
Cc1nsc(C(=O)NCCc2ccc(F)cc2)n1,16.8,-1.519,7.099,-0.994

Some entries from above, unchanged:

| compound | Leishmania in macrophages | MtTrpRS | Toxoplasma | CoaBC |
|---|---|---|---|---|
| `CCC1=N[C@@]2(CC[C@@H]3CN(CC)C[C@@H]32)C(=O)N1C` | - | - | - | 1.975 |
| `COCCN1CC[C@]2(CN(Cc3ccccn3)C[C@H]2C)C1=O` | - | -0.7551 | - | - |
| `CCOCC(=O)N1CC(=O)Nc2cc(Br)ccc21` | 3.072 | 0.4776 | -2.498 | 8.367 |

Source: ChEMBL document CHEMBL3988442, “University of Dundee, Small-Polar-MMV Screening Library” (2021).